Results as given in a melting point compilation (Tetko et al.; mined from patent text by program, amines drawn as free bases though some values may be those of a salt).

- melting point: 161 to 163 °C
Structure (SMILES): CN(C1c2cc(OCCCC(F)(F)F)ccc2OC(C)(C)C1O)S(C)(=O)=O (stereo unspecified)
